According to the supplement of paper PMC8256030:
Some of the results follow. Single values are uncertain here, since repeats match poorly.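 HEK293T cells were given each compound shortly before transfection with a reporter in which red mCherry is followed by the SARS-CoV-2 frameshift element and then GFP in the −1 frame, so GFP appears only after frameshifting.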

Tests used:
[1] = system: SARS-CoV-2 -1 PRF reporter mCherry-FSE-GFP(-1); assay: mCherry (red) intensity as percent of control; higher = higher upstream reporter expression; details: 10 µM; 24 h; HEK293T
[2] = system: SARS-CoV-2 -1 PRF reporter mCherry-FSE-GFP(-1); assay: percent effect, decrease of GFP/mCherry ratio (-1 PRF reporter) relative to controls; higher = stronger frameshift inhibition; details: 10 µM; 24 h; HEK293T

Structure (SMILES) | mCherry [1] [%] | percent effect [2] [%]
Cl/C(=C\n1cncn1)c1ccc(Cl)cc1Cl [loreclezole] | 102 | -2.15
CC(C)CC1Nc2cc(Cl)c(S(N)(=O)=O)cc2S(=O)(=O)N1 (centres undefined) [butizide] | 73.6 | -1.18
CCc1cn([C@H]2C[C@H](O)[C@@H](CO)O2)c(=O)[nH]c1=O | 129 | -2.63
CC(=O)Nc1ccc(OC(C)=O)cc1 [diacetamate] | 111 | 2.13
CC1=C(C/C=C(\C)CCC[C@H](C)CCC[C@H](C)CCCC(C)C)C(=O)c2ccccc2C1=O [phytomenadione] | 79.2 | -12.1
C[C@]12C=CC(=O)C=C1CC[C@H]1[C@@H]3CC[C@](O)(C(=O)CO)[C@@]3(C)C[C@H](Cl)[C@@]12Cl [dichlorisone] | 77.2 | 3.15
COc1cc(N)c(Cl)cc1C(=O)N1CCN(Cc2ccc3c(c2)OCO3)CC1 [peralopride] | 95.6 | -0.985
CN1CCN(CCCN2c3ccccc3Sc3ccc(S(=O)(=O)N(C)C)cc32)CC1 [thioproperazine] | 114 | -2.12
O=C(/C=C/c1c(C(=O)O)[nH]c2cc(Cl)cc(Cl)c12)Nc1ccccc1 [gavestinel] | 102 | 1.06
CCOC(=O)[C@H](CCc1ccccc1)N[C@@H](C)C(=O)N1CC2(C[C@H]1C(=O)O)SCCS2 [spirapril] | 75.7 | -4.47
CN(C)CCC(c1ccc(Br)cc1)c1ccccn1 (centres undefined) [brompheniramine] | 84.8 | -5.62
CCCCCCCCCCCCCCCC(=O)NCCO [palmidrol] | 85.6 | -5.54

One compound at a time, from the list above.
Cl/C(=C\n1cncn1)c1ccc(Cl)cc1Cl [loreclezole] in the list: mCherry [1] [%]: 102; percent effect [2] [%]: -2.15
O=C(/C=C/c1c(C(=O)O)[nH]c2cc(Cl)cc(Cl)c12)Nc1ccccc1 [gavestinel] in the list: mCherry [1] [%]: 102; percent effect [2] [%]: 1.06
